Experiments:
[1] = general procedure: Fmoc solid-phase peptide synthesis; Rink-amide MBHA; PyBop/HOBt/DIPEA; conditions: whole synthesis, scale 54 μmol
[2] = general procedure: Fmoc solid-phase peptide synthesis; Rink amide MBHA resin (0.54 mmol/g); PyBop/HOBt/DIPEA; conditions: whole synthesis, Analytical RP-HPLC, Phenomenex C18, scale of the general procedure 54 μmol

Substance: (Lys(DTPA-GLU)-βAla)4-Lys(DTPA-GLU)-Gly-CCK8
- isolated yield [1]: 40%
- final HPLC purity [2]: 95%
